# Reference: PubChem BioAssay AID2549 (National Center for Advancing Translational Sciences (NCATS), 2010)
# Protein sequences, listed by entry. Tags and fused reporters are not part of them. Lines headed by an entry give the natural chain unless they say otherwise; changes in a name come on top.
# UniProt P46063: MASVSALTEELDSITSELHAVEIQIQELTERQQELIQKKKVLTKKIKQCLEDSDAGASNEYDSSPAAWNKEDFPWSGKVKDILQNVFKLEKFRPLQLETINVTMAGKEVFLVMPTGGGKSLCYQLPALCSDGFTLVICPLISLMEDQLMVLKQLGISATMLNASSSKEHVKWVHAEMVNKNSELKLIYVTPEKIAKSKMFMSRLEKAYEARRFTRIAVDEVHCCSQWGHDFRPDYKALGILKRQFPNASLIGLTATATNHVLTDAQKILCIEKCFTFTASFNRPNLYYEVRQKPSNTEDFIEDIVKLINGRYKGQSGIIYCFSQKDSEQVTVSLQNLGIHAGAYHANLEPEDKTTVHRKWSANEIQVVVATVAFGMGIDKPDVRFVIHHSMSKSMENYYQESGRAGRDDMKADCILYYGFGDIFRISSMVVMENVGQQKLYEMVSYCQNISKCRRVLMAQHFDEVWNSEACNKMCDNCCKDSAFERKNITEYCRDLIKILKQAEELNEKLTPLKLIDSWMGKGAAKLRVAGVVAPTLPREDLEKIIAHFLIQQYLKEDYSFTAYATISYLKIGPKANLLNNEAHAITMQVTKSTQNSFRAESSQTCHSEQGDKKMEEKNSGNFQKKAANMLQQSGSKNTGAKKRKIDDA
# Out of some 240,000 compounds screened, about 1,300 (0.54%) were called active. Inconclusive means that the source gave no clear call. Such entries were picked first, then a sample of the others. Calls come from the whole dose curve; as a rule, active = well fitted inhibition curve with a large enough effect; inconclusive = small, poorly fitted or top-dose-only effect; inactive = flat fitted curve, though single readings scatter. Potencies of inconclusive entries are doubtful fits and often do not repeat. Some structures have more than one record in an assay (separate samples or runs), and their calls can disagree.
# Target: ATP-dependent DNA helicase Q1 (Homo sapiens) (UniProt P46063)
# Test: qHTS Assay for Inhibitors of RecQ-Like Dna Helicase 1 (RECQ1); note: nearly all actives have a fitted effect of over 30% in size;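 for activity, negative = inhibition: plate controls were vehicle for no effect and no enzyme for full effect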
# Details: RECQ1 DNA unwinding, red fluorescence kinetic read; series mostly up to 57.3 µM; activity, negative = inhibition: at the top concentration
# Outline: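 RECQ1T1 50 nM; forked duplex (20 bp + 30-nt ss tails) 200 nM, ATP 2 mM final; pH 8.0, 2 mM MgCl2, 2.5 ug/ml poly(dI-dC); 15 min compound preincubation; discontinuous kinetic read over 2 h at RT.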
# Potency is the fitted concentration of half-maximal effect.
SMILES,"activity, negative = inhibition",Potency,outcome
Cc1ccc(-c2nc(N3CCOCC3)s[n+]2-c2ccccc2)cc1,inactive: -2.72%,–,–
COCCCn1c(N)c(C(=O)NCc2ccco2)c2nc3ccccc3nc21,–,"inconclusive: 28.2 µM [inhibitor, partial curve]",–
COc1ccc(N2C(=O)NC(=O)/C(=C/c3ccc([N+](=O)[O-])s3)C2=O)cc1,–,"inconclusive: 39.8 µM [inhibitor, single point]",–
CCC(N)C(O)c1ccc(O)c(O)c1 (stereo unspecified),inactive: 12.2%,–,–
O=C(O)CC1OCC=C2CN3CCC45C6=CC(=O)C(=O)C([N+](=O)[O-])=C6NC4C1C2CC35 (stereo unspecified),–,"inconclusive: 25.1 µM [inhibitor, single point]",–
O=C1NC(=O)N(CCc2ccc(F)cc2)C(=O)/C1=C/c1ccco1,–,active: 28.2 µM,–
NC(Cc1cc(O)c(O)cc1O)C(=O)O (stereo unspecified),–,active: 0.631 µM,–
Cn1ncnc2c(=O)n(C)c(=O)nc1-2,–,"inconclusive: 5.01 µM [inhibitor, full curve]",–
CN(N=O)c1cc(O)ccc1O,–,active: 1.58 µM,–
CC(C)N1C(=O)/C(=C/C=C/c2ccco2)C(=O)N(Cc2ccco2)C1=O,–,active: 10 µM,–
Brc1c(Br)c(Br)c2n[nH]nc2c1Br,–,"inconclusive: 39.8 µM [inhibitor, single point]",–
CC(C)(C)N1C(=O)NC(=O)/C(=C\c2ccc3c(c2)CCN3CCCCl)C1=O,–,"inconclusive: 35.5 µM [inhibitor, single point]",–
CCCCCCn1c(N)c(C(=O)NCCN2CCOCC2)c2nc3ccccc3nc21,–,"inconclusive: 7.94 µM [inhibitor, full curve, poor fit]",–
Cc1ccc(C2N3CCCN23)cc1 (stereo unspecified),–,–,inactive
CCCCCCC(=O)N/N=C/c1c(O)n(CCCC)c(=S)[nH]c1=O,inactive: -2.88%,–,–
O=C1NC(=S)NC(=O)C1=Cc1ccc2c(c1)CCN2CCCCl,–,"inconclusive: 39.8 µM [inhibitor, single point]",–
Nc1cc(N2CCNCC2)ccc1[N+](=O)[O-],–,"inconclusive: 2.82 µM [inhibitor, full curve]",–
O=P(Oc1ccccc1)(Oc1ccccc1)C(Nc1ccccc1)c1ccccc1 (stereo unspecified),–,"inconclusive: 3.55 µM [inhibitor, full curve]",–
O=c1c2ccccc2nc(CSc2ncnc3nc[nH]c23)n1-c1ccccc1Cl,–,"inconclusive: 8.91 µM [inhibitor, partial curve]",–
O=C(c1ccc(CS(=O)(=O)c2ccccc2)o1)N1CCC2(CC1)OCCO2,–,"inconclusive: 39.8 µM [inhibitor, single point]",–
C=CC(C)=O,inactive: 0.794%,–,–
C=C1C(=O)O[C@@H]2C[C@@H](C)[C@@H]3C=CC(=O)[C@@]3(C)[C@@H](OC(=O)CC(=O)O[C@H]3[C@@H]4C(=C)C(=O)O[C@@H]4C[C@@H](C)[C@@H]4C=CC(=O)[C@]43C)[C@H]12,–,active: 25.1 µM,–
Cc1c(F)c(F)c(COC(=O)C2C(/C=C(\Cl)C(F)(F)F)C2(C)C)c(F)c1F (stereo unspecified),inactive: 0.111%,–,–
O=C1C(=O)c2ccccc2-c2ccccc21,–,"inconclusive: 39.8 µM [inhibitor, single point]",–

# An excerpt of these results, bar-delimited.
SMILES | activity, negative = inhibition | Potency | outcome
O=P(Oc1ccccc1)(Oc1ccccc1)C(Nc1ccccc1)c1ccccc1 (stereo unspecified) | – | inconclusive: 3.55 µM [inhibitor, full curve] | –
O=c1c2ccccc2nc(CSc2ncnc3nc[nH]c23)n1-c1ccccc1Cl | – | inconclusive: 8.91 µM [inhibitor, partial curve] | –

# Later entries:

SMILES,"activity, negative = inhibition",Potency,outcome
O=c1[nH]c(=S)[nH]c(O)c1N=Nc1ccc(SC(F)F)cc1,inactive: 0.742%,–,–
O=C1NC(=O)C(=O)C(=O)N1,–,"inconclusive: 39.8 µM [inhibitor, single point]",–
Cc1ccc(N2C(=O)NC(=O)/C(=C/C=C/c3ccco3)C2=O)cc1,–,active: 20 µM,–
N#CC(C#N)=Cc1ccc(C=C(C#N)C#N)cc1,inactive: -18.5%,–,–
Cc1cc(C)cc(-n2c(C)cc(/C=C3\C(=O)NC(=O)N(C)C3=O)c2C)c1,inactive: -8.42%,–,–
CCOc1ccc(N2C(=O)NC(=O)/C(=C/c3cnc(SC)nc3)C2=O)cc1,inactive: -11.5%,–,–
CN1C(=O)/C(=C/c2ccc(N3CCCCCC3)o2)C(=O)NC1=S,inactive: -13.5%,–,–
Cc1cccc(N2C(=O)NC(=O)/C(=C\c3cccn3-c3ccc(Cl)cc3)C2=O)c1,–,active: 31.6 µM,–
CC1Cc2c(cnc3c2CN(C)CC3)CO1 (stereo unspecified),inactive: -1.27% [at 11.5 µM],–,–
Cc1ccc(-n2c(C)cc(/C=C3/C(=O)NC(=O)N(Cc4ccco4)C3=O)c2C)cc1,–,"inconclusive: 39.8 µM [inhibitor, single point]",–
CCCCCCCC/C=C\CCCCCCCC(=O)OC[C@@H](COP(O)(O)=S)OC,–,active: 25.1 µM,–
O=C1OC(c2cc(I)c(O)c(I)c2)(c2cc(I)c(O)c(I)c2)c2ccccc21,–,active: 8.91 µM,–
O=C(O[C@@H]1Cc2c(O)cc(O)cc2O[C@@H]1c1cc(O)c(O)c(O)c1)c1cc(O)c(O)c(O)c1,–,active: 3.16 µM,–
NCCc1c[nH]c2ccc(O)cc12,–,"inconclusive: 39.8 µM [inhibitor, single point]",–
CC(C)n1c(=O)c(C=Nc2ccc(S(N)(=O)=O)cc2)c(O)n(Cc2ccco2)c1=O,–,"inconclusive: 35.5 µM [inhibitor, single point]",–
O=c1[nH]c(=S)n(-c2ccccc2)c(O)c1/C=N/N1CCCCC1c1cccnc1 (stereo unspecified),–,active: 25.1 µM,–
CCCCn1c(O)c(/C=N/NC(=O)c2ccncc2)c(=O)[nH]c1=S,–,"inconclusive: 17.8 µM [inhibitor, partial curve]",–
COC(=O)c1sc2nc(SCc3cccc(F)c3)n(N)c(=O)c2c1C,–,"inconclusive: 7.08 µM [inhibitor, single point]",–
Cc1ccc(CSc2n[nH]c(N)n2)cc1,–,active: 28.2 µM,–
CN(C)C1C(=O)C(C(N)=O)=C(O)[C@@]2(O)C(=O)C3=C(O)c4c(O)cccc4[C@](C)(O)C3C(O)C12 (stereo partly specified),–,active: 10 µM,–
CC[C@H](C)[C@H](NC(=O)[C@@H](N)Cc1ccc(O)cc1)C(=O)NCC(=O)N[C@@H](CO)C(=O)N[C@@H](CCCN=C(N)N)C(N)=O,inactive: -12.2%,–,–
C=CCn1c(O)c(/C=C2/C=CC=N2)c(=O)[nH]c1=O,–,active: 11.2 µM,–
Cc1cc(C)cc(N2C(=O)NC(=O)/C(=C\C=C\c3ccco3)C2=O)c1,–,active: 14.1 µM,–
OCCN1CCN(CCCN2c3ccccc3Sc3ccc(C(F)(F)F)cc32)CC1,–,"inconclusive: 4.47 µM [inhibitor, full curve, poor fit]",–

SMILES,"activity, negative = inhibition",Potency,outcome
Cc1ccc(Sc2ccc(C=C3C(=O)N(C)C(=O)N(C)C3=O)o2)cc1,–,–,inactive
CCCCNC(=O)Oc1c(Br)cc2sc(=O)oc2c1Br,–,active: 11.2 µM,–
CC1(C)COC(Nc2ccc(Cl)cc2)=N1,inactive: -10.4%,–,–
O=C1NC(=O)N(c2ccccc2)C(=O)/C1=C\c1ccc([N+](=O)[O-])s1,–,"inconclusive: 31.6 µM [inhibitor, single point]",–
CN1CCN(C(=O)OC2c3nccnc3C(=O)N2c2ccc(Cl)cn2)CC1 (stereo unspecified),–,"inconclusive: 1.41 µM [inhibitor, full curve]",–
CN[C@@H]1C[C@H]2O[C@@](C)([C@@H]1OC)n1c3ccccc3c3c4c(c5c6ccccc6n2c5c31)C(=O)NC4,–,active: 35.5 µM,–
CN(CC(=O)NC(=O)NCc1ccco1)CC(=O)Nc1ccccc1Cl,–,"inconclusive: 28.2 µM [inhibitor, single point]",–
C[C@@H](CO)NC(=O)[C@@H]1C=C2c3cccc4[nH]cc(c34)C[C@H]2N(C)C1,–,"inconclusive: 39.8 µM [inhibitor, single point]",–
CCCCC/C=C\C/C=C\C/C=C\C/C=C\CCCC(=O)Nc1ccc(O)cc1,–,inactive,–
O=C(Nc1cccc(C(=O)Nc2cc(C(=O)Nc3ccc([S+](=O)([O-])[O-])c4cc([S+](=O)([O-])[O-])cc(SOOO)c34)ccc2F)c1)Nc1cccc(C(=O)Nc2cc(C(=O)Nc3ccc([S+](=O)([O-])[O-])c4cc([S+](=O)([O-])[O-])cc([S+](=O)([O-])[O-])c34)ccc2F)c1,–,active: 11.2 µM,–
ClC1=C(Cl)C(Cl)(C2(Cl)C(Cl)=C(Cl)C(Cl)=C2Cl)C(Cl)=C1Cl,–,"inconclusive: 31.6 µM [inhibitor, single point]",–
O=C1NC(=O)N(Cc2ccccc2)C(=O)/C1=C/C=C/c1ccco1,–,active: 11.2 µM,–
O=C1NC(=S)N(c2ccc(Br)cc2)C(=O)/C1=C/N1CCN(C(=O)c2ccco2)CC1,–,"inconclusive: 39.8 µM [inhibitor, single point]",–
Cc1ccc2c(c1Cl)NC(C(=O)O)C1CC(Sc3ccccc3[N+](=O)[O-])C(Cl)C21 (stereo unspecified),inactive: -27.9%,–,–
O=C1NC(=O)N(Cc2cccs2)C(=O)/C1=C/c1ccc(N2CCOCC2)cc1,inactive: -6.87%,–,–
CC1(C)CC(=O)C2=C(C1)OC(N)=C([N+](=O)[O-])C2c1ccc(C#N)s1 (stereo unspecified),–,active: 28.2 µM,–
COc1ccc(C(=O)c2c(C)n(CCN3CCOCC3)c3cc(I)ccc23)cc1,–,"inconclusive: 7.94 µM [inhibitor, full curve]",–
COc1ccc(-n2c(C)cc(C(=O)C[N+]34CCN(CC3)CC4)c2C)cc1,inactive: -8.08%,–,–
O=C1NC(=O)N(c2ccccc2)C(=O)/C1=C/C=C/c1ccco1,–,"inconclusive: 39.8 µM [inhibitor, single point]",–
O=C1NC(=O)N(Cc2ccco2)C(=O)/C1=C\c1cccn1CCOc1ccccc1,–,"inconclusive: 28.2 µM [inhibitor, single point]",–
NC(=O)C1CCN(/C=C2\C(=O)NC(=O)N(Cc3ccco3)C2=O)CC1,–,"inconclusive: 35.5 µM [inhibitor, single point]",–
ClC1=C(Cl)C(Cl)=C(Cl)C1=C/C=C/c1ccccc1,–,"inconclusive: 39.8 µM [inhibitor, single point]",–
CC(=O)Oc1c2c(c(CC=C(C)C)c3c1C(=O)C1=CC4CC5C(C)(C)OC(C/C=C(\C)C(=O)O)(C4=O)[C@]15O3)OC(C)(CCC=C(C)C)C=C2 (stereo partly specified),–,"inconclusive: 39.8 µM [inhibitor, single point]",–
